The values that follow come from PMC12140329.

The chains behind the UniProt entries cited, without tags or fusion partners.
UniProt Q9P258: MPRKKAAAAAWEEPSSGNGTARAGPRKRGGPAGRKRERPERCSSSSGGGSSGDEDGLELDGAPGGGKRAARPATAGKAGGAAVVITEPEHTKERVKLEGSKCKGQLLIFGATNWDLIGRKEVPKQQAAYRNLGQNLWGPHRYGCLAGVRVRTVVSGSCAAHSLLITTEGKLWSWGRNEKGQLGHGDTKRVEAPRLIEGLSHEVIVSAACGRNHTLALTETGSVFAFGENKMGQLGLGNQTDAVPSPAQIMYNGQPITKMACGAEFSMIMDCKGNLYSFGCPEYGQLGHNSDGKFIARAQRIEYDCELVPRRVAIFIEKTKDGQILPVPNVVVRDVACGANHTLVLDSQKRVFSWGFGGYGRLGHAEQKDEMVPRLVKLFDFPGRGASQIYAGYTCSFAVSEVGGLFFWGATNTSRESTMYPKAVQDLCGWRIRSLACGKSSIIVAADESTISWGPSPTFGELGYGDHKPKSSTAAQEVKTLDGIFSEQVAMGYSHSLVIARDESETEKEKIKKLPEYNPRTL
UniProt Q92830: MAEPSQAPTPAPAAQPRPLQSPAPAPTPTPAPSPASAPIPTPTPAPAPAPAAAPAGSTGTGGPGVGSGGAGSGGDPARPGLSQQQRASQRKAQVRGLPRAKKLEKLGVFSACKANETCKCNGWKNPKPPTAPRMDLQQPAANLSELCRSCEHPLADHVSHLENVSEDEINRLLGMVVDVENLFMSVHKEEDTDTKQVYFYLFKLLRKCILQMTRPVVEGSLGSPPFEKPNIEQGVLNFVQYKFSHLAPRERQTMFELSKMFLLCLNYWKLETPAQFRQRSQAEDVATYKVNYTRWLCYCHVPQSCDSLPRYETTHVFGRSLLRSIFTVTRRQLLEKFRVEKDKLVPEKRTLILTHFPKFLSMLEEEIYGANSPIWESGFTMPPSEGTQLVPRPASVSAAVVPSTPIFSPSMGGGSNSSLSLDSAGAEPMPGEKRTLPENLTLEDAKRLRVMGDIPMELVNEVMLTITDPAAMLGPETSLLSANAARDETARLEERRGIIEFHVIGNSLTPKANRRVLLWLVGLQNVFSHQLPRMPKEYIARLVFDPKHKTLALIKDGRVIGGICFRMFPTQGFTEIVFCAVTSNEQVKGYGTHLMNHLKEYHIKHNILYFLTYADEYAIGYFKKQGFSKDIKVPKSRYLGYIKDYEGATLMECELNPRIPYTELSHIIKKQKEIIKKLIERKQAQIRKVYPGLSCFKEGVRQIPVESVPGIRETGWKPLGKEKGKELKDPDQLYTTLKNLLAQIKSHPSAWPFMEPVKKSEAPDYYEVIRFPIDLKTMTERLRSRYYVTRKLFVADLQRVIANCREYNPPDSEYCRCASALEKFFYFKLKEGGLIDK

The target of experiment [1] is T1, Flag-SERBP1 (full-length, exogenous) (UniProt Q8NC51).
T1 sequence: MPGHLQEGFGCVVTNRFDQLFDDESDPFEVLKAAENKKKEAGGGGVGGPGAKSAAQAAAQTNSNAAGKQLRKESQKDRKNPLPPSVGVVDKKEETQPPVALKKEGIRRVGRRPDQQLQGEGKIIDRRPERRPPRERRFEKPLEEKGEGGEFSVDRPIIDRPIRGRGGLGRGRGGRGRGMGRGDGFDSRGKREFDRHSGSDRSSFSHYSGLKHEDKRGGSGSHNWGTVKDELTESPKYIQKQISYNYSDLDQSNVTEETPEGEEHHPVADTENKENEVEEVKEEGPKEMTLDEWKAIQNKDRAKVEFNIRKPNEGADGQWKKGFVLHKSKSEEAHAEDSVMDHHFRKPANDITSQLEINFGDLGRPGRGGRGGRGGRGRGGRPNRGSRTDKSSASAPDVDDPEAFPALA
The experiment is described as follows: co-IP; exogenous co-IP of transfected proteins; lysate in Co-IP buffer, overnight at 4 °C with specific antibodies and protein A/G magnetic beads, five washes, Western blot; some panels with or without 50 mM NaLa or KAT2A overexpression.

The target of experiment [2] is myc-RCC2 (wild-type RCC2) (human) (UniProt Q9P258). The description is as above.

Results are given in words; binding and its absence hold for the method and conditions named. Binding seen in cells or lysates may run through a third protein. Some results given as binding are weak or reduced against the parent protein; the word gives no strength. For some assays here: Sequences can lack the tags named with a protein.

In the case of “myc-RCC2 (wild-type RCC2) (from UniProt Q9P258 1-522)”, in experiment [1], the binding entry is on record as “binds”.
“KAT2A (exogenous) (from UniProt Q92830 1-837) (enzyme)”: the binding entry in experiment [2] was “binds”.
